The other results are listed elsewhere or left out. Further columns of the screen follow, without active or inactive calls. Compounds called inactive in the main read-out are mostly missing here. Words in brackets tell the shape of the fitted curve; partial curves, single points and poor fits give uncertain potencies.
Experiment: qHTS Assay for Lipid Storage Modulators in Drosophila S3 Cells;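 on cell number change: cells counted by Cell Tracker Red CMTPX staining in the red channel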
Conditions: BODIPY lipid droplet fluorescence, 18-24 h; for cell number change: measured here: cell count max response, cells fed with added oleic acid
Method in brief: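 Laser-scanning cytometry quantifies lipid droplet accumulation (500–530 nm total intensity; droplet/cell object ratio) in oleic acid-fed (400 uM added) Drosophila S3 cells treated with a concentration series. 20 uM Triacsin C defined 100% inhibition.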

[1] = measured here: cell number channel AC50, cells fed with added oleic acid
[2] = measured here: lipid fluorescence (Fed channel) AC50, cells fed with added oleic acid

SMILES	cell number change [%]	AC50 [1]	AC50 [2]
COC(=O)Cc1c(C)c2ccc(OCC(=O)N3CCC(C)CC3)c(C)c2oc1=O	-42.4	20.6 µM [falling, single point]	14.6 µM [falling, partial curve, poor fit]
CCOC(=O)N1CCc2c(sc(NC(=O)C3COc4ccccc4O3)c2C(N)=O)C1 (stereo unspecified)	75.4	–	0.411 µM [falling, partial curve, poor fit]
CCOc1ncccc1C(=O)NCCc1ccc(S(N)(=O)=O)cc1	12.7	–	0.651 µM [rising, partial curve, poor fit]
Cc1cc(C)cc(NC(=O)C(=O)NCCCN2CCOCC2)c1	-17.9	0.651 µM [rising, single point]	29.1 µM [falling, single point]
CCN(CC)S(=O)(=O)c1ccc(Nc2nc3ccccc3n3nnnc23)cc1	-18.1	–	1.16 µM [rising, full curve, poor fit]
[O-][n+]1cccc2ncc3cscc3c21	-30.8	32.6 µM [falling, single point]	–
CCNc1nc(NC(C)(C)C)nc(N(CC)n2cnnc2)n1	3.74	–	32.6 µM [rising, single point]
N#Cc1c2nc3ccccc3nc2n2cc(NC(=O)c3ccc(F)cc3)ccc12	–	0.82 µM [rising, full curve]	–
CCc1cc(C(=O)OC)c(NC(=O)CC2NCCNC2=O)s1 (stereo unspecified)	-0.473	–	29.1 µM [rising, single point]
O=C(Cn1cnc2c(nnn2Cc2ccccc2)c1=O)NCC1CCCO1 (stereo unspecified)	-17.1	–	0.13 µM [falling, full curve, poor fit]
C=CC(C)(O)CCCC(C)CCCC(C)CCCC(C)C (stereo unspecified)	-20.4	–	0.116 µM [falling, single point]
CCOC(=O)Cc1csc(NC(=O)CSc2nnc3ccccn23)n1	79.9	–	–
O=C(COC(=O)/C=C/c1ccc(C(F)(F)F)cc1)NCC1CCCCC1	-2.43	–	0.103 µM [rising, full curve, poor fit]
CCN(Cc1ccccc1)C1CCN(Cc2ccccc2)CC1	-15.2	0.00461 µM [falling, full curve, poor fit]	–
CSCC[C@H](NC(=O)[C@H](Cc1ccccc1)n1c(=O)[nH]c2ccccc2c1=O)C(=O)N1CCC[C@@H]1C(=O)O	40.5	29.1 µM [rising, single point]	29.1 µM [rising, single point]
CCOc1cc(O)c(-c2[nH]ncc2-c2nc(C)cs2)cc1CC	-37.8	29.1 µM [falling, single point]	1.84 µM [falling, partial curve]
Cc1cc(C)n(CCCNC(=O)CCNS(=O)(=O)c2ccccc2C(F)(F)F)n1	3.51	–	–
Cc1cc(NC(=O)c2ccc(-c3ccccc3F)o2)no1	38.7	–	–

Single records (already shown):
`Cc1cc(NC(=O)c2ccc(-c3ccccc3F)o2)no1` in the list: cell number change [%]: 38.7
`CCN(CC)S(=O)(=O)c1ccc(Nc2nc3ccccc3n3nnnc23)cc1` in the list: cell number change [%]: -18.1; AC50 [2]: 1.16 µM [rising, full curve, poor fit]

Next records follow.

SMILES	cell number change [%]	AC50 [1]	AC50 [2]
Cc1cc(C)c(NS(=O)(=O)c2ccc(NC(=O)/C=C/C(=O)O)cc2)c(C)c1	37	20.6 µM [rising, single point]	–
O=C(COC(=O)c1cccc(S(=O)(=O)N2CCCCCC2)c1)Nc1ccccc1C(F)(F)F	-1.55	–	6.51 µM [rising, single point]
Cc1ccnc(NC(=O)c2ccc(Cl)c(NC(=O)CCc3ccccc3)c2)c1	-8.6	–	0.651 µM [rising, single point]
Cc1ccc(OC(=O)c2cccc(C(=O)Oc3ccc(C)cc3)n2)cc1	60.9	29.1 µM [rising, single point]	3.66 µM [falling, single point]
CCCC(=O)c1c[nH]c(C(=O)NCc2ccco2)c1	60	13 µM [rising, partial curve, poor fit]	–
Cn1cccc1C(=O)OCc1cc(Cl)cc2c1OCOC2	74.7	20.6 µM [rising, single point]	5.17 µM [falling, single point]
CCOc1ccc(Cn2nnc(-c3ccc(S(C)(=O)=O)cc3)n2)cc1OCC	-18.5	–	0.0291 µM [rising, full curve]
CCC(=O)c1c[nH]c(C(=O)NCc2ccco2)c1	69.6	25.9 µM [rising, single point]	20.6 µM [rising, single point]
NC(=O)c1ccsc1NC(=O)CCS(=O)(=O)c1ccc(F)cc1	69.1	20.6 µM [rising, single point]	–
CC(C)(C)n1ncc(Oc2ccccc2[N+](=O)[O-])c(Cl)c1=O	-33.2	29.1 µM [falling, single point]	23.1 µM [falling, single point]
COC(=O)c1cc(Cl)c(NC(=O)Cc2ccccc2)cc1OC	30.6	0.651 µM [rising, full curve]	–
Cc1c(Br)c([N+](=O)[O-])nn1CC(=O)N1CCCc2ccccc21	9.77	3.26 µM [rising, single point]	–
COc1ccc(C(=O)NC(=S)Nc2ccc3oc(=O)ccc3c2)cc1[N+](=O)[O-]	1.08	–	5.17 µM [falling, single point]
COc1ccc(CCNC(=O)c2ccccc2-c2ccccc2C(=O)O)cc1OC	26.6	–	0.164 µM [rising, full curve, poor fit]
O=C([O-])c1cc(-c2ccccc2)cc(-c2ccccc2)[n+]1Cc1ccccc1	-52.6	29.1 µM [falling, single point]	29.1 µM [falling, single point]
CCCN(CCC)S(=O)(=O)c1ccc(NC(=O)COc2ccccc2)cc1	0.817	–	29.1 µM [falling, single point]
Cc1cc(C(=O)N2CCN(S(=O)(=O)c3ccc(C)c(C)c3)CC2)no1	-12.5	–	–
O=C(NC(Cc1c[nH]c2ccccc12)C(=O)N/N=C/c1cccnc1)c1cccs1 (stereo unspecified)	2.77	6.51 µM [falling, single point]	–

Source: PubChem BioAssay AID2685 (National Center for Advancing Translational Sciences (NCATS), 2010)
